From PMC12023856
The exact form of at least one protein or probe is not confirmed. No signal at the amounts used counts as a negative.

System: LvERF113-GST (Lilium hybrid cultivar 'Viviana')
Assay: EMSA
Details: Chemiluminescent EMSA kit (Beyotime); pH and temperature not stated; cold competitor 10x and 50x; recombinant protein; protein details: GST (pGEX-6P); label: biotin

Sequence: CTCTAACCACTAAAAAAACCGGTCAAATG (double strand) [proLvMYB1 GCC-box mutant probe (Mu-P3-Bio)]
- binding result: no binding
